Consider 64 compounds from the supplement of paper PMC11150407.

Where a name gives a salt, the structure may show the parent alone. Out of some 2,100 compounds screened, about 180 (8.6%) showed an effect of 50% or more. The list shows a part of the results.

The assay has as its system MOLM1 and UCSD/AML1 (averaged). Kind of assay: cell viability relative to DMSO control (POC); higher = less growth inhibition. The following applies: 1 µM; 72 h. As for the experimental part: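 Primary viability screen in the 3q26 EVI1-high AML cell lines MOLM1 and UCSD/AML1 (1.5e3 cells/well, 384-well), compounds at 1 uM for 72 h. ATP CellTiter-Glo read-out given as percent of viable cells over DMSO control (POC), averaged over duplicates. DMSO was the negative control and 5 uM etoposide the positive control. This mapping covers the MicroSource Spectrum and Selleck anticancer libraries (drug names).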
A word on the cell viability: it is a read-out of living cells in per cent, often relative to untreated cells. For the compound `CN[C@H](CC(C)C)C(=O)N[C@H]1C(=O)N[C@@H](CC(N)=O)C(=O)N[C@H]2C(=O)N[C@H]3C(=O)N[C@H](C(=O)N[C@H](C(=O)O)c4cc(O)cc(O)c4-c4cc3ccc4O)[C@H](O)c3ccc(c(Cl)c3)Oc3cc2cc(c3O[C@@H]2O[C@H](CO)[C@@H](O)[C@H](O)[C@H]2O[C@H]2C[C@](C)(N)[C@H](O)[C@H](C)O2)Oc2ccc(cc2Cl)[C@H]1O`, the cell viability is 90.6%.
The figure for `NS(=O)(=O)c1cc2c(cc1Cl)N=CNS2(=O)=O` is 103%; for `CCOC(=O)[C@H](CCc1ccccc1)N[C@@H](C)C(=O)N1[C@H](C(=O)O)C[C@@H]2CCC[C@@H]21` it is 90.1%; for `CCC(CCC(C)C1CCC2C3CCC4CC(O)CCC4(C)C3CCC12C)C(C)C` (centres undefined) it is 89.6%.
In the case of `C=NC(C(=O)NC1C(=O)N2C1SC(C)(C)C2C(=O)O)c1ccccc1` (centres undefined) it was 92.6%; in that of `CC1=CC2C(C(C)C)CCC(C)(O)C2CC1` (centres undefined), 104%.
The figure for `COc1ccc2ccc(=O)oc2c1` is 97.3%; for `NS(=O)(=O)c1cc(C(=O)O)c(NCc2ccco2)cc1Cl` it is 95.1%; for `O=C(O)c1cc(=O)c2ccccc2o1` it is 94%.
Take `CC(=O)CC(=O)CCC(=O)O`: the cell viability was found to be 96.2%.
The figure for `COc1ccc2oc(-c3ccccc3)c(OC)c(=O)c2c1` is 98.7%; for `Cc1cc(C2CCCCC2)n(O)c(=O)c1` it is 80.1%; for `O=C(O)c1cc2cc(Cl)ccc2[nH]1` it is 98.1%.
The figure for `O=C(O)C(=O)O.[NH-]C1CCCCC1[NH-].[Pt+2]` (centres undefined) [Oxaliplatin (Eloxatin)] is 41.3%; for `COc1ccc(C2C(=O)c3ccccc3C2=O)cc1` it is 99%.
In the case of `Cc1cccc(C)c1NC(=O)C1CCCCN1C` (centres undefined) it was 89.4%; in that of `COc1cc(/C=C/C(=O)N2CCC=CC2=O)cc(OC)c1OC`, 50.7%; in that of `CN(C)c1ccc2nc3ccc(=[N+](C)C)cc-3sc2c1`, 103%.
In the case of `CC(=O)Oc1ccc2c(c1)CC[C@@H]1[C@@H]2CC[C@]2(C)[C@@H](OC(C)=O)CC[C@@H]12`, the cell viability came to 87.5%.
In the case of `Cc1ncc([N+](=O)[O-])n1CC(O)CCl` (centres undefined) it was 96%; in that of `COc1cc(OC)c2c(OC)c(-c3ccc4c(c3)OCO4)c(=O)oc2c1`, 101%.
In the case of `CN1C(C(=O)Nc2ccccn2)=C(O)c2sccc2S1(=O)=O` it was 96.9%; in that of `N=C(N)N`, 96.3%.
In the case of `C[C@]12CC[C@H]3C(=CCc4cc(O)ccc43)[C@@H]1CCC2=O` it was 93.4%; in that of `C[C@]12C=CC(=O)C=C1CC[C@@H]1[C@@H]2[C@@H](O)C[C@@]2(C)[C@H]1CC[C@]2(O)C(=O)COP(=O)(O)O`, 84.2%; in that of `CCCCCC/C=C\CCCCCCCc1cccc(O)c1C(=O)O`, 81.2%.
Consider `Cc1c(C(N)=O)cc([N+](=O)[O-])cc1[N+](=O)[O-]`, for which the cell viability is 87.7%.
On to `C=C[C@H]1CN2CC[C@H]1C[C@@H]2[C@@H](O)c1ccnc2ccc(OC)cc12`, for which the cell viability turned out to be 109%.
As to `COc1ccc2c(c1OC)OC[C@@H](c1ccc(OC)c(OC)c1OC)C2`, the cell viability is 113%.
The figure for `CS(=O)(=O)c1ccc(C2=C(c3ccccc3)C(=O)OC2)cc1` is 95.1%; for `CN(C)CCC=C1c2ccccc2CCc2ccccc21` it is 99.3%; for `O=C(Nc1ccccc1)c1ccccc1O` it is 97.1%.
The figure for `C=C1C(=O)[C@]23[C@H](CC[C@@H]1[C@@H]2O)[C@]12CO[C@@]3(O)[C@H](O)[C@H]1C(C)(C)CC[C@@H]2O` is 94.3%.
In the case of `COC(=O)C[C@H]1C(C)(C)C(=O)[C@@H]2CC3=C(CC[C@]4(C)C3=CC(=O)O[C@H]4c3ccoc3)[C@@]1(C)C2=O` it was 93.4%.
Take `CCN(CC)CCOC(=O)C(c1ccccc1)C1CCCCC1` (centres undefined): the cell viability came to 103%.
For `COCC1=C(C(=O)OC(C)OC(=O)OC(C)C)N2C(=O)[C@@H](NC(=O)/C(=N\OC)c3csc(N)n3)[C@H]2SC1` (some centres undefined), the cell viability turned out to be 88.2%.
Take `CN1CCC(c2c(O)cc(O)c3c(=O)cc(-c4ccccc4Cl)oc23)C(O)C1` (centres undefined) [Flavopiridol (Alvocidib) HCl]: the cell viability stood at 1.36%.
In the case of `COc1cc(Cc2cnc(N)nc2N)cc(OC)c1OC`, the cell viability amounted to 92%.
In the case of `CC1CCC(C(C)C)C(O)C1` (centres undefined) it was 99.3%; in that of `C[C@@H](Oc1cc(-n2cnc3ccc(CN4CCN(C)CC4)cc32)sc1C(N)=O)c1ccccc1C(F)(F)F`, 19.5%; in that of `O=C(CCCN1CCC(O)(c2ccc(Br)cc2)CC1)c1ccc(F)cc1`, 78.4%.
For `CNCC[C@H](Oc1cccc2ccccc12)c1cccs1`, the cell viability was 103%.
For the compound `CC1(COc2ccc3c(c2)ncn3-c2ccc3cccc(N4CCC(N)CC4)c3n2)COC1`, the cell viability is 29.2%.
In the case of `CO[C@@]1(NC(=O)Cc2cccs2)C(=O)N2C(C(=O)O)=C(COC(N)=O)CS[C@@H]21` it was 111%; in that of `COc1cc2c(cc1OC)C(=O)C(CC1CCN(Cc3ccccc3)CC1)C2` (centres undefined), 85.7%; in that of `CC(=O)OCC(=O)[C@H]1CC[C@H]2[C@@H]3CCC4=CC(=O)CC[C@]4(C)[C@H]3CC[C@]12C`, 99.5%.
With `Oc1cccc(-c2nc(N3CCOCC3)c3oc4ncccc4c3n2)c1`, the cell viability came out at 25.7%.
On to `CC(CN(C)C)CN1c2ccccc2Sc2ccccc21` (centres undefined), for which the cell viability is 89.5%.
As to `CC1(C)[C@@H](OC(=O)CCC(=O)O)CC[C@]2(C)[C@H]3C(=O)C=C4[C@@H]5C[C@@](C)(C(=O)O)CC[C@]5(C)CC[C@@]4(C)[C@]3(C)CC[C@@H]12`, the cell viability was found to be 94.5%.
The figure for `N=C(N)NCCN1CCCCCCC1` is 103%; for `C=CCOC(Cn1ccnc1)c1ccc(Cl)cc1Cl` (centres undefined) it is 94%; for `O=C(/C=C/c1ccc(O)c(O)c1)O[C@@H]1C[C@](O)(C(=O)O)C[C@@H](O)[C@H]1O` it is 98.2%.
In the case of `CC(C)C[C@H](NC(=O)CNC(=O)c1cc(Cl)ccc1Cl)B1OC(=O)C(CC(=O)O)(CC(=O)O)O1` it was 1.16%.
As for `CC[C@@H](CO)NCCN[C@@H](CC)CO`, the cell viability amounted to 105%.
The figure for `CCN(CC)CCCCNc1ncc2cc(-c3cc(OC)cc(OC)c3)c(NC(=O)NC(C)(C)C)nc2n1` is 36.8%.
The figure for `Nc1ccccc1C(=O)CC(N)C(=O)O` (centres undefined) is 98.1%; for `CCCOc1ccc(C(=O)OCCN(CC)CC)cc1N` it is 89.5%; for `Cc1cc(O)c2c(O)c3c(O)cccc3cc2c1` it is 122%.
The figure for `C=CCSCC1Nc2cc(Cl)c(S(N)(=O)=O)cc2S(=O)(=O)N1` (centres undefined) is 91.6%; for `c1ccc(CN(CC2=NCCN2)c2ccccc2)cc1` it is 94.8%.
As to `CC1(C)CC2C1CCC1(C)OC2(C)CCC1O` (centres undefined), the cell viability amounted to 91.4%.
In the case of `OCc1ccccc1O` it was 98.8%; in that of `COc1c(N2CCNC(C)C2)c(F)cc2c(=O)c(C(=O)O)cn(C3CC3)c12` (centres undefined), 92.6%; in that of `O=C(c1ccccc1)c1ccc2n1CCC2C(=O)O` (centres undefined), 96.7%.
